According to publication PMC7819943, “Rice protein-binding microarrays: a tool to detect cis-acting elements near promoter regions in rice”:
Some of the results follow.

These sequences were tested against T1, OsSMF1 (Oryza sativa, UniProt Q6ZLB0 1-436) (assay: protein-binding microarray (RPBM); PBS, 2% BSA, 51.3 ng/ul salmon testes DNA, 50 uM zinc acetate, 200 nM TF, 25 C, 1 h; high values mean tight binding). Settings: protein: recombinant; tags: N-terminal polyhistidine and DsRed monomer fusion (pET32a); chain copies: 2; label: CyDye5-dUTP incorporated in the synthesized complementary strand; 3' TTTTT single-stranded linker to array surface; dsDNA, one strand shown.
T1 sequence: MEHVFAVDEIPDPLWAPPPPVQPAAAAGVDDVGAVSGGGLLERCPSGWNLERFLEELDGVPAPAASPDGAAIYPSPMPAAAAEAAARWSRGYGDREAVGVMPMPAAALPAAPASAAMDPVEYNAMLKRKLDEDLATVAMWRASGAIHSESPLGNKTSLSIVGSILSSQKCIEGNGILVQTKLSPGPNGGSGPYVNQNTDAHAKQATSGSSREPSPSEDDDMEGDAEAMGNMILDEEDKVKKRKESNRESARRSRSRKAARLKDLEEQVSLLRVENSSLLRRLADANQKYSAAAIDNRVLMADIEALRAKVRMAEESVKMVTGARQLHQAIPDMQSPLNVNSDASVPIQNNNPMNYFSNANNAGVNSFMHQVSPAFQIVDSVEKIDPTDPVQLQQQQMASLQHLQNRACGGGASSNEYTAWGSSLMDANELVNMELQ
Summary of the method: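 Per-feature fluorescence intensity (arbitrary units), read on an Axon 4000B scanner, is the binding signal. Transcription factors carrying an N-terminal polyhistidine tag and DsRed fusion were expressed in E. coli BL21-CodonPlus and purified on Ni–NTA. A custom Agilent array, made double-stranded by primer extension with Cy5-dUTP and blocked with 2% BSA, was incubated with 200 nM protein in PBS, 2% BSA, salmon testes DNA and 50 µM zinc acetate at 25 °C for 1 h and then washed.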

Sequence | binding signal
CCAACACCATCGCATGAGTCATTTGTAGGGGCTTTTGCGCCGGAGTCACCTAGTGCAG | 3650 fluorescence intensity (a.u.)
TTGCGTCGTACTATCATTGCATGTGATAAGCTGTACAGTGCGGAGTCACCTAGTGCAG | 3380 fluorescence intensity (a.u.)
CAATTGCATGTCGTCATTACCTCTTCATCAGCAGGATTGGCGGAGTCACCTAGTGCAG | 3990 fluorescence intensity (a.u.)
GATGCATGCCTTCTTGTCTGTCATACGTCTCGTGCAATCGCGGAGTCACCTAGTGCAG | 3990 fluorescence intensity (a.u.)
CTGGACACGGAGGCCGCGGCGGCGGCGGTGGCGTGGGAAGCGGAGTCACCTAGTGCAG | 3160 fluorescence intensity (a.u.)
ACCATCTCTCTCTCTCTCTCTGCATGCATATCTTCTCCTCCGGAGTCACCTAGTGCAG | 3210 fluorescence intensity (a.u.)
AGTAGCAAAACCTGTTTGTAGAGGAAATTATTATAGTGTTCGGAGTCACCTAGTGCAG | 53700 fluorescence intensity (a.u.)
TATAAGAGCAAGTTTAATAGTATAGCCAACTACTAGCTCCCGGAGTCACCTAGTGCAG | 11300 fluorescence intensity (a.u.)
CTTTTGTCATTTCAACAGAATGATGATGACTTCACACCGTCGGAGTCACCTAGTGCAG | 4620 fluorescence intensity (a.u.)
CGTGTCATTGTCCAAAATGTCAAAGAAATATGGAACCGGACGGAGTCACCTAGTGCAG | 15200 fluorescence intensity (a.u.)
TGGGCTGGGTGAGGGAGATGACCGCGATGGACGAAAGCGTCGGAGTCACCTAGTGCAG | 3170 fluorescence intensity (a.u.)
AGGGTACTAGCGGAGTAGACAAGCTGGCATATATATGATGCGGAGTCACCTAGTGCAG | 3400 fluorescence intensity (a.u.)
AATCAAATCTTAGCGATGTAGTGAAACAGGTCAGACGGAACGGAGTCACCTAGTGCAG | 3600 fluorescence intensity (a.u.)
CACCTCTGCGCCCCTCGTCGCACCACCACCACCGAGTCATCGGAGTCACCTAGTGCAG | 4120 fluorescence intensity (a.u.)
AAATTGCGACACCTGTCCAGGGTGGCCCTACTTAATTACGCGGAGTCACCTAGTGCAG | 3790 fluorescence intensity (a.u.)
AAGGGAGAGGATGGGATGACGTGGCATCCTAACATGTGGGCGGAGTCACCTAGTGCAG | 27600 fluorescence intensity (a.u.)
CAAGTTGATTGCGATGAGTTGTACAAAATTCCACACAAATCGGAGTCACCTAGTGCAG | 3250 fluorescence intensity (a.u.)
ATATGGGGCCACGCTGTACAGCCACGTAGGACGGTCAATCCGGAGTCACCTAGTGCAG | 13700 fluorescence intensity (a.u.)
TCGTCGTCGGCGACGAGGACAACTGCGGCGGCGGCGGCGGCGGAGTCACCTAGTGCAG | 3290 fluorescence intensity (a.u.)
GGTGGCTAGCGTCCTCCTCCTCTTCTACGTGGCGGCGGCCCGGAGTCACCTAGTGCAG | 3690 fluorescence intensity (a.u.)
AGAATATATTACTCGCCTTTTGACCTGTCCAACACAGTTGCGGAGTCACCTAGTGCAG | 3350 fluorescence intensity (a.u.)
GACAGAGATCTCTACACACCTGGATGCGCCTCGATCAGAACGGAGTCACCTAGTGCAG | 3330 fluorescence intensity (a.u.)
CCAAGAGGTTGGACCTCTTGCTAACTTTCCTCCAAAATCTCGGAGTCACCTAGTGCAG | 11300 fluorescence intensity (a.u.)
AGAGGTGACCTCGGATAACGTGTAAAATCCGTGACACCTCCGGAGTCACCTAGTGCAG | 4960 fluorescence intensity (a.u.)
AATTCTAATTTATATGGTAGATTTTAAAAGTTAAATTGGACGGAGTCACCTAGTGCAG | 31700 fluorescence intensity (a.u.)
AGTAGAAATATAGCATTGCACACGTCTTCCGTACAAAGATCGGAGTCACCTAGTGCAG | 5700 fluorescence intensity (a.u.)
ATCCCTCCCTCACGCAAGAAGCATCCCGATGACACACACGCGGAGTCACCTAGTGCAG | 3700 ± 557 fluorescence intensity (a.u.)

Random excerpt: 2 records from the list, in no set order.
Sequence | binding signal
ATATGGGGCCACGCTGTACAGCCACGTAGGACGGTCAATCCGGAGTCACCTAGTGCAG | 13700 fluorescence intensity (a.u.)
AAATTGCGACACCTGTCCAGGGTGGCCCTACTTAATTACGCGGAGTCACCTAGTGCAG | 3790 fluorescence intensity (a.u.)

(further entries)

Sequence | binding signal
AAAGCTGCAAATCTCCAAATTTCCAGCGACACACGCACGTCGGAGTCACCTAGTGCAG | 3400 fluorescence intensity (a.u.)
GACAATTGCACAATACATACTGTATATAGCAAGCTTCGGTCGGAGTCACCTAGTGCAG | 3180 fluorescence intensity (a.u.)
ATTACGGTATAACTTACATAAAACTTGTATTCAACTGCGCCGGAGTCACCTAGTGCAG | 15700 fluorescence intensity (a.u.)
GCCCAGAACACCTGCCACCCTTTCGGGATGACGTAGCCGCCGGAGTCACCTAGTGCAG | 11000 fluorescence intensity (a.u.)
TGCCATGACCTAACCCATCTATTTTCACTTCACTTTTCCTCGGAGTCACCTAGTGCAG | 4830 fluorescence intensity (a.u.)
GGCGATAGGCGGTGGAGGGCGGCGTGGCTGCACGTATTTTCGGAGTCACCTAGTGCAG | 3900 fluorescence intensity (a.u.)
CATGGACTCGGCTCACAGATTCCGTCACACTTACATGTGGCGGAGTCACCTAGTGCAG | 3560 fluorescence intensity (a.u.)
CGAGAGATCGATATCGATCGATCCCACATCATTTGGCCACCGGAGTCACCTAGTGCAG | 3340 fluorescence intensity (a.u.)
ATGACTTAGTGACGATATGATCGGTCGATCTGGTGTTATGCGGAGTCACCTAGTGCAG | 4040 fluorescence intensity (a.u.)
TCCAATCCTGCGTGGAGTAATTTATTTCAAGCGCAACAGGCGGAGTCACCTAGTGCAG | 3630 fluorescence intensity (a.u.)
CAGGTGAACCCTCTAAGGCCATATTAGTTTTATATGCTGACGGAGTCACCTAGTGCAG | 3220 fluorescence intensity (a.u.)
TGCTATCTACGTGGACTTAGTGTCGCCTGACTAATGTACCCGGAGTCACCTAGTGCAG | 7800 fluorescence intensity (a.u.)
AACATCCACTACCGCTAGCCGCTCGTTCTCCCTCTCCCGCCGGAGTCACCTAGTGCAG | 4000 fluorescence intensity (a.u.)
ACTTGTATAATAAAATTATAATGTAACGTGTACGTAACTTCGGAGTCACCTAGTGCAG | 3860 fluorescence intensity (a.u.)
AGCCGAAGCCCTCCCTCGTGTCCGACGACGACGCAGGGCACGGAGTCACCTAGTGCAG | 3370 fluorescence intensity (a.u.)
TTATAATACTGTATTCTTTCACACATCACCTTTTATCTCACGGAGTCACCTAGTGCAG | 4470 fluorescence intensity (a.u.)
CTTTCCCCGCGCCATCGATCCACGCCATTATATAGCTGTCCGGAGTCACCTAGTGCAG | 3390 fluorescence intensity (a.u.)
TGGAGCTAGTCAAGTAGACAGATCATACTATTCCCCAATTCGGAGTCACCTAGTGCAG | 4150 fluorescence intensity (a.u.)
ATATAAGGTCGCCGCGGCGTCACCAACTTCCCACACACATCGGAGTCACCTAGTGCAG | 4580 fluorescence intensity (a.u.)
TGTTCTTCCAAATCTGTCATGTGCAAGTATTACATAAACACGGAGTCACCTAGTGCAG | 3510 fluorescence intensity (a.u.)
CGCCTCCAATTCTTCGCTACCGCCATGTCATGCTTCCCATCGGAGTCACCTAGTGCAG | 6790 fluorescence intensity (a.u.)
AATTAAAACCGTGCCATTACCGTCACGTTTTCTATCAACTCGGAGTCACCTAGTGCAG | 3270 fluorescence intensity (a.u.)
GACTGGGAGGATGAGGGGTGGGTGGGTGTGGCTGCTTCTGCGGAGTCACCTAGTGCAG | 6000 fluorescence intensity (a.u.)
AAATGCATATAGAAAACTGACGTCAATGAATGATAATGATCGGAGTCACCTAGTGCAG | 4630 fluorescence intensity (a.u.)
GGAACGCCATCGCCAGCCGCATCCGCCGCGCCGACGCCACCGGAGTCACCTAGTGCAG | 24700 fluorescence intensity (a.u.)
GCCGACCGCCGGTGCGCACCTTCGCCGAGGGAGGAGGAGTCGGAGTCACCTAGTGCAG | 26000 fluorescence intensity (a.u.)
TCCATTAGTGCAGTAGTAGTACTGAACTCTCTGTGGGTTGCGGAGTCACCTAGTGCAG | 3700 fluorescence intensity (a.u.)
